Measured values taken from publication doi:10.1101/2020.06.24.169185.
Results are given in words; binding and its absence hold for the method and conditions named. For part of these data: In cells and extracts the contact can be indirect. Some results given as binding are weak or reduced against the parent protein; the word gives no strength. Sequences can lack the tags named with a protein.

The chains behind the UniProt entries cited, without tags or fusion partners.
UniProt P20263: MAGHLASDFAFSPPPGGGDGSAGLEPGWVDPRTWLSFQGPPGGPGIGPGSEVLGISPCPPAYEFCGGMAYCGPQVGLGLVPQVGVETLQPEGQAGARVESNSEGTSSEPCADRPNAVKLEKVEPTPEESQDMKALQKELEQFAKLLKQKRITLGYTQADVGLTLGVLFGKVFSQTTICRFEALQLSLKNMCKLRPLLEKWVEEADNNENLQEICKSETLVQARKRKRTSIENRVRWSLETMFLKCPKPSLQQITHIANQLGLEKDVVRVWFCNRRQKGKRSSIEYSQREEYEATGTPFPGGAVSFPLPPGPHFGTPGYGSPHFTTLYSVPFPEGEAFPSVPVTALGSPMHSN
UniProt P48432: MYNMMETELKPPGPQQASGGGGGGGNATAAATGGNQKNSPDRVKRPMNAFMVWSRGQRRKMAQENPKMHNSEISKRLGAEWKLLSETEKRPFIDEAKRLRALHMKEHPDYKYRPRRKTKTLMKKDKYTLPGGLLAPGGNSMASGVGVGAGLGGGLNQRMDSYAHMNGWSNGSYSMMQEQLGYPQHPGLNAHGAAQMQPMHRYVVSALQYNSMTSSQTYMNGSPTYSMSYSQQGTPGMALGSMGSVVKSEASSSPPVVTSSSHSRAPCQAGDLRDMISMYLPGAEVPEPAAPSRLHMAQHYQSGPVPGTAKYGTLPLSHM

How the values were obtained:
(FLAG)3-Oct4 = (FLAG)3-Oct4 (UniProt P20263); test: fluorescence correlation spectroscopy
GFP-Nanog = GFP-Nanog (UniProt Q80Z64); test: fluorescence correlation spectroscopy
(FLAG)3-Sox2 [1] = biological target: (FLAG)3-Sox2 (UniProt P48432); test: fluorescence correlation spectroscopy
(FLAG)3-Nanog = biological target: T1, (FLAG)3-Nanog (UniProt Q80Z64); test: co-IP
T1 sequence: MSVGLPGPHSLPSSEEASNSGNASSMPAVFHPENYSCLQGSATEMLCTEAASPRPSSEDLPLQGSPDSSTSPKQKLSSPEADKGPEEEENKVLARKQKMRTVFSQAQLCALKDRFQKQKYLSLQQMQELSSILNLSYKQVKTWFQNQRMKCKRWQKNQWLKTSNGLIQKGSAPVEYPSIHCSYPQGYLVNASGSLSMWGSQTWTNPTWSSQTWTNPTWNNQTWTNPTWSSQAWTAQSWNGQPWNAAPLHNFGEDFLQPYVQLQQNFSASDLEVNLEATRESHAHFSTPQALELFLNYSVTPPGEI

(FLAG)3-Sox2 [2] = biological target: (FLAG)3-Sox2 (UniProt P48432); test: co-IP

Measured: binding

B1: GFP-Nanog (protein, UniProt Q80Z64 1-305)
chain: T1 sequence
binds: all assays above

B2: mCherry-Nanog (protein, UniProt Q80Z64 1-305)
chain: T1 sequence
binds: (FLAG)3-Nanog
